The supplement of paper PMC10849652
This is one part of the list.

Protein sequences, listed by entry. Tags and fused reporters are not part of them. Lines headed by an entry give the natural chain unless they say otherwise; changes in a name come on top.
UniProt P53355: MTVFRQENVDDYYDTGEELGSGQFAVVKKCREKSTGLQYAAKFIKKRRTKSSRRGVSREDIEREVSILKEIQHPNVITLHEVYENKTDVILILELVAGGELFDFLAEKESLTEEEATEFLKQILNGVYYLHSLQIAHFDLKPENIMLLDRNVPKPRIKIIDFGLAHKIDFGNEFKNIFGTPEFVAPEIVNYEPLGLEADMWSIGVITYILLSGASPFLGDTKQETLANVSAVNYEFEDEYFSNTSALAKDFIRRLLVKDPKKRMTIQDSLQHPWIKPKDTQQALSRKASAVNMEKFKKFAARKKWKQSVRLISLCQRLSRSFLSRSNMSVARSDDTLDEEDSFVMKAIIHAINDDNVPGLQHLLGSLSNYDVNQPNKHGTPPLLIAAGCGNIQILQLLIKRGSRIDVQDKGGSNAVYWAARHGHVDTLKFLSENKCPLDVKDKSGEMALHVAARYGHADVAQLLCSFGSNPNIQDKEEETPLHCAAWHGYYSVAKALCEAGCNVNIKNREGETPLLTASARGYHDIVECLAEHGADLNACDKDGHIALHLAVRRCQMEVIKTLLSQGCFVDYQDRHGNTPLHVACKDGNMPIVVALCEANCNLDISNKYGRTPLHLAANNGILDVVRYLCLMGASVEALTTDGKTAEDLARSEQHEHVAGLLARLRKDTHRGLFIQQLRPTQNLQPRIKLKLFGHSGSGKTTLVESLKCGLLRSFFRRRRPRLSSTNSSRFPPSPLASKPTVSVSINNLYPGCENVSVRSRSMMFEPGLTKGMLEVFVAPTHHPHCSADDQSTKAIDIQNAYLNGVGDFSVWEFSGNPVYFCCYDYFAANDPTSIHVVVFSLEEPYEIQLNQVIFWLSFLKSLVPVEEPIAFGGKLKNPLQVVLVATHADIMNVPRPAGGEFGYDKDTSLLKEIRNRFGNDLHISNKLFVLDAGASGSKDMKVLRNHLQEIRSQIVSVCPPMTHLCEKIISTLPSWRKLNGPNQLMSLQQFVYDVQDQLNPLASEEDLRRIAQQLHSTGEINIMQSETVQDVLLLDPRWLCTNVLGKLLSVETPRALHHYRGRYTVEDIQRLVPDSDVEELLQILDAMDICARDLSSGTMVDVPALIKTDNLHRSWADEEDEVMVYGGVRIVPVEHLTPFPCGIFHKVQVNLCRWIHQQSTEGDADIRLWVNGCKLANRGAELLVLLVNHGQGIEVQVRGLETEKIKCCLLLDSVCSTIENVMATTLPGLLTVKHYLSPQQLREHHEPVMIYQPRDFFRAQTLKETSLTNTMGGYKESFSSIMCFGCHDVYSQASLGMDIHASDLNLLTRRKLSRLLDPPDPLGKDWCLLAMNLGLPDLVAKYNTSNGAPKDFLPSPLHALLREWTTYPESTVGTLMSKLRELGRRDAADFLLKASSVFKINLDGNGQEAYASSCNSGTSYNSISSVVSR
UniProt Q9UBU7: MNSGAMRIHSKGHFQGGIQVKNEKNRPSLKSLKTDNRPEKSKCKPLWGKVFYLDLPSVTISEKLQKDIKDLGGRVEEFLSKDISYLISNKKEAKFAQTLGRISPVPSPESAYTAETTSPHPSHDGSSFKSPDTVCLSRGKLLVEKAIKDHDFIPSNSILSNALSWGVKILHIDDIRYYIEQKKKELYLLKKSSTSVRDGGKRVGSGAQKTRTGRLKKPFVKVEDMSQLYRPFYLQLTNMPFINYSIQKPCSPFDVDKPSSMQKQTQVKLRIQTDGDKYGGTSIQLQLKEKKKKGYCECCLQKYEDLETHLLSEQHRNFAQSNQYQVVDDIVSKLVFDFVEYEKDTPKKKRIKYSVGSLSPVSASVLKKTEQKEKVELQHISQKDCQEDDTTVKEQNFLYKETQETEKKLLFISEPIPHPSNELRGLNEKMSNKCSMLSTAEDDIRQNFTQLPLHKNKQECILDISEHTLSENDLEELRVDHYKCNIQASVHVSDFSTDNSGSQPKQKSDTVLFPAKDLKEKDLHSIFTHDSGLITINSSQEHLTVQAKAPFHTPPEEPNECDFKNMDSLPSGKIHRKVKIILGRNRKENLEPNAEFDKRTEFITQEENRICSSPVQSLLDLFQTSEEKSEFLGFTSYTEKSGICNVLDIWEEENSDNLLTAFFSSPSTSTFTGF
UniProt Q9NUL7: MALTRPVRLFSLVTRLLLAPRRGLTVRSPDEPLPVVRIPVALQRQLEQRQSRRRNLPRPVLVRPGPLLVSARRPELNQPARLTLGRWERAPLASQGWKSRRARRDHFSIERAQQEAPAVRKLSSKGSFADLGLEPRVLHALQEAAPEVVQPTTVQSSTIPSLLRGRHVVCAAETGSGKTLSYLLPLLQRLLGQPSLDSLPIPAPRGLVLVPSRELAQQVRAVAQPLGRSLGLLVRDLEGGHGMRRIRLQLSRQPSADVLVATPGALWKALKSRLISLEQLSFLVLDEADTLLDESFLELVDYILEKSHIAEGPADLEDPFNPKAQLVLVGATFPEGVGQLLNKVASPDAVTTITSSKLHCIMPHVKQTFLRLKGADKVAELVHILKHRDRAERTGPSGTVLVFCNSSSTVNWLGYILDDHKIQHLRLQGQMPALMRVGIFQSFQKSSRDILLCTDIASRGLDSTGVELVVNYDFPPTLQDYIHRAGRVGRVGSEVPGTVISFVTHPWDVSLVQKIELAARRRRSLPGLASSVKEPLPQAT
UniProt Q8IZD4: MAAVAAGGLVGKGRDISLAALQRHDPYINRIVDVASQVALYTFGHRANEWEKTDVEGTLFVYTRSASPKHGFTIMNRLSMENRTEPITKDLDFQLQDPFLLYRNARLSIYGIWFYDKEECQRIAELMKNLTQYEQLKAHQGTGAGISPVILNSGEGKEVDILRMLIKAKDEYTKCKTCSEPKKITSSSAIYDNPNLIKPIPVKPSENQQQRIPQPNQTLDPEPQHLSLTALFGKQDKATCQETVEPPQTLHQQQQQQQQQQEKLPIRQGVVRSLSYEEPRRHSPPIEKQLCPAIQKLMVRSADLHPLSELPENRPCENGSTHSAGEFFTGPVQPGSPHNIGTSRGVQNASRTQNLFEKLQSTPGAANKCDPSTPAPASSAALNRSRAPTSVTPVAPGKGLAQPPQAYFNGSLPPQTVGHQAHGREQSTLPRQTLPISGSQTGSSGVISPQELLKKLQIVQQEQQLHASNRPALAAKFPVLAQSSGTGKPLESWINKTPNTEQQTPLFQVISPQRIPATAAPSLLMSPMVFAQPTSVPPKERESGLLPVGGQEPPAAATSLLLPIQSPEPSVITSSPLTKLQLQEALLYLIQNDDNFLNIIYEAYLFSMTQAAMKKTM
UniProt Q9UJU6: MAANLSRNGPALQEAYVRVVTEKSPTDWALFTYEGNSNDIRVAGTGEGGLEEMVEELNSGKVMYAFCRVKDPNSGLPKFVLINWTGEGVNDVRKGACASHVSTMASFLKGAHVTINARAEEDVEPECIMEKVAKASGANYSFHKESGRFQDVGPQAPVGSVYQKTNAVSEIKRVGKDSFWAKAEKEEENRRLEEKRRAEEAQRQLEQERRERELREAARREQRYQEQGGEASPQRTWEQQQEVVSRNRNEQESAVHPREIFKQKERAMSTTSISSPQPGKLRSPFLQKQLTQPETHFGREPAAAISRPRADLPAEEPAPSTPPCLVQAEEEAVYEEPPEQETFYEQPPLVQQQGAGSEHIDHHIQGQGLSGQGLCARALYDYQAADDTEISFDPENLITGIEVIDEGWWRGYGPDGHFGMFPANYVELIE
UniProt Q6P3S1: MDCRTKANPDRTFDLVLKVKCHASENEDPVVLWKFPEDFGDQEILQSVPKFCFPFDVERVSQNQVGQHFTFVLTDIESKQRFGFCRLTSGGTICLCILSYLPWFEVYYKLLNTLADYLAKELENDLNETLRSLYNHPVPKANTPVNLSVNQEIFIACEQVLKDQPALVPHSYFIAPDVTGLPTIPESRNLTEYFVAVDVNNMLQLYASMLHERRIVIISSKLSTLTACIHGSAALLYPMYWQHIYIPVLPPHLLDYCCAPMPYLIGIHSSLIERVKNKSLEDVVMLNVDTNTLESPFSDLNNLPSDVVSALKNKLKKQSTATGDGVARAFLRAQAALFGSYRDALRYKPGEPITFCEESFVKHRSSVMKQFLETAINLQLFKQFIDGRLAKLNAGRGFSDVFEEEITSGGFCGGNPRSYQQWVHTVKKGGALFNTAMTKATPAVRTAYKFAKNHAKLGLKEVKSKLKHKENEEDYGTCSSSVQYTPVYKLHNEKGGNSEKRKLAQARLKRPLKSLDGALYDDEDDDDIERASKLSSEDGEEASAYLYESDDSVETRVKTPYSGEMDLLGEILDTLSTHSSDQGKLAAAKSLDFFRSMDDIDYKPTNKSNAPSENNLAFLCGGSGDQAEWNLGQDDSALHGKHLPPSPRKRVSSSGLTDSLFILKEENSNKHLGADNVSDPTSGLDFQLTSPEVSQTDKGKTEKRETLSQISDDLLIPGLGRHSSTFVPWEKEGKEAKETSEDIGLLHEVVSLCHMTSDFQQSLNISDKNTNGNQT
UniProt O94760: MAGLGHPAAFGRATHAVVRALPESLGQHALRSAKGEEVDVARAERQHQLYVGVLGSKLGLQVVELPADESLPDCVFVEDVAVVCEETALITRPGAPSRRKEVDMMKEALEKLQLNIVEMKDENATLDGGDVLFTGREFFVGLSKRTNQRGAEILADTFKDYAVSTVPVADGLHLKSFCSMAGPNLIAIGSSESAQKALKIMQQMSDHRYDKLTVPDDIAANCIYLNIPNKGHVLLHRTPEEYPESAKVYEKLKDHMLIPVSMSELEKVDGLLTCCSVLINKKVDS
UniProt Q15038: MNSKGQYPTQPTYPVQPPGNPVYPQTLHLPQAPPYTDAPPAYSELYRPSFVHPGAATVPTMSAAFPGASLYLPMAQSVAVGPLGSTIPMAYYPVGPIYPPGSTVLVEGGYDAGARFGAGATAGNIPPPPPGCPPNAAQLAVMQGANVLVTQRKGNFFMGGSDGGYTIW
UniProt Q6ICB0: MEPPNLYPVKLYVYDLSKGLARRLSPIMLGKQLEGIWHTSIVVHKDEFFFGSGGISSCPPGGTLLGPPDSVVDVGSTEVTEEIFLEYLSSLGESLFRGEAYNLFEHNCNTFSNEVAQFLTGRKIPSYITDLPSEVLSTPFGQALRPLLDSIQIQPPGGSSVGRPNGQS
UniProt Q08345: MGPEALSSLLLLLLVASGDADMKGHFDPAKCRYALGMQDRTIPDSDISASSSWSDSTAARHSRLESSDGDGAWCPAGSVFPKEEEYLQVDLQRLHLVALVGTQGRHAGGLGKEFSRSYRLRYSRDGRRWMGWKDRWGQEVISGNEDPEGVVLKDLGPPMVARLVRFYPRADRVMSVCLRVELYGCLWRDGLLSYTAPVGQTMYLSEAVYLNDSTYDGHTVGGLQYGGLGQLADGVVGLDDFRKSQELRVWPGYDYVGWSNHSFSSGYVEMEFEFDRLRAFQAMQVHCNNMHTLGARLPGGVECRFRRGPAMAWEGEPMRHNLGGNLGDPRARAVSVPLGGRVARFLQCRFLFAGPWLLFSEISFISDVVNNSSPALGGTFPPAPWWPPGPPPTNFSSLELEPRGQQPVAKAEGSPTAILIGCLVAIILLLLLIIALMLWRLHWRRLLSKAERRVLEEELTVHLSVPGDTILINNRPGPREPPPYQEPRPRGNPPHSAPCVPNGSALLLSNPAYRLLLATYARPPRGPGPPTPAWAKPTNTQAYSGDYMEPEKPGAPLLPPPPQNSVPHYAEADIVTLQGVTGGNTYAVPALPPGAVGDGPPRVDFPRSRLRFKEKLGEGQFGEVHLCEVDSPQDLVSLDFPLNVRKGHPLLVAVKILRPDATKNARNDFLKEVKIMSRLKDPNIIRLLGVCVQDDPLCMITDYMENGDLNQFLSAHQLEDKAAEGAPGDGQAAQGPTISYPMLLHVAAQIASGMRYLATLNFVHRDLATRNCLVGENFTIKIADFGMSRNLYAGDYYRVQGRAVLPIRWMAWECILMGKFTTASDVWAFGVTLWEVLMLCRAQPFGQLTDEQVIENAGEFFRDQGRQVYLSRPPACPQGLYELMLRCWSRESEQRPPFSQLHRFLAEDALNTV

Experiments:
Experiment in all cases: log2 fold change, soluble protein after heating vs DMSO (PISA); higher = thermal stabilisation; K562 lysate, 10 uM; active = over 0.2 and 3.5 SD of the protein, either way, in both replicates (recomputed)
erlotinib = compound: C#Cc1cccc(Nc2ncnc3cc(OCCOC)c(OCCOC)cc23)c1 [erlotinib]
In short: (§1)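 Quantification was by TMTpro 16plex LC-MS/MS with equalised channel sums, applied to the supernatant after 21,000xg for 90 min. Samples were crude K562 extract at 1 mg/mL protein in PBS pH 7.4 with 1 mM MgCl2, treated with 10 μM compound for 30 min, heated for 3 min across 48°C-58°C, pooled and brought to 0.5% NP-40 at 4°C. Values are log-two fold changes in thermal stability relative to solvent controls, from duplicates.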

[1] = compound: C/C(=N\NC(=O)C1=CC(=CC=C1)S(=O)(=O)N2CCOCC2)/C3=C(C=CC(=C3)Cl)O
In short: as §1

[2] = compound: C1=CC(=CC=C1C2=NC3=C(N2)C=C(C=C3)C(=O)N)OC4=CC=C(C=C4)Cl
In short: as §1

[3] = compound: C1=CC2=C(C=CC(=C2)/C=C\3/C(=O)NC(=NCC4=CC=CS4)S3)N=C1
In short: as §1

[4] = compound: C1=CC=C(C=C1)C2=NC(=C(N2)C3=CC=NC=C3)C4=CC(=C(C=C4)Cl)O
In short: as §1

[5] = compound: C1=CC=C2C(=C1)C3=NNC4=CC=CC(=C43)C2=O
In short: as §1

IRAK-1-4 Inhibitor I = compound: C1COCCN1CCN2C3=CC=CC=C3N=C2NC(=O)C4=CC(=CC=C4)[N+](=O)[O-] [IRAK-1-4 Inhibitor I]
In short: as §1

[6] = compound: CC(=O)c1cnc2ccc(-c3cc(Cl)c(O)c(Cl)c3)nc2c1N[C@H]1CC[C@H](CN(C)C)CC1
In short: as §1

ralimetinib = compound: CC(C)(C)Cn1c(N)nc2ccc(-c3[nH]c(C(C)(C)C)nc3-c3ccc(F)cc3)nc21 [ralimetinib]
In short: as §1

[7] = compound: CC(C)(O)CC(=O)NCCn1ccc2ncnc(Nc3ccc(Oc4cccc(C(F)(F)F)c4)c(Cl)c3)c21
In short: as §1

[8] = compound: CC(C)C1=C2N=C(C=C(N2N=C1)NCC3=CC=CC=C3)NCCCCCCN
In short: as §1

[9] = compound: CC1=C(C(CC(=O)N1)C2=CC=C(C=C2)C(F)(F)F)C(=O)NC3=C(C=C4C(=C3)C=NN4)F
In short: as §1

[10] = compound: CC1=C(C2=C(C=C1)C(=O)C3=CC=CC=C3N2CCCN)C
In short: as §1

[11] = compound: CC1=C(C=C(C=C1)NC(=O)C2=CC(=CC=C2)C(C)(C)C#N)NC3=CC4=C(C=C3)N=CN(C4=O)C
In short: as §1

[12] = compound: CC1=C(C=C(C=C1)NC(=O)C2=CC(=CC=C2)N(C)C)NC(=O)C3=CC=C(C=C3)O
In short: as §1

[13] = compound: CC1=CC=C(C=C1)SC2=C3C=C(SC3=CN=C2)C(=O)N
In short: as §1

[14] = compound: C1=CC2=NC=CN=C2C=C1/C=C/3\C(=O)NC(=O)S3
In short: as §1

[15] = compound: C1CCN(C1)C(=O)NC2=CC=CC(=C2)NC3=NC=C(C(=N3)NCCC4=CN=CN4)Br
In short: as §1

[16] = compound: C1CN(CCC1(CC2=CC=C(C=C2)Cl)N)C3=NC=NC4=C3C=CN4
In short: as §1

ibrutinib = compound: C=CC(=O)N1CCC[C@@H](n2nc(-c3ccc(Oc4ccccc4)cc3)c3c(N)ncnc32)C1 [ibrutinib]
In short: as §1

Measured: log2 fold change

DAPK1 isoform 3 (UniProt P53355)
inactive: erlotinib -0.015 | [1] -0.17 | [2] -0.306 | [3] -0.274 | [4] 0.061 | [5] 0.181 | IRAK-1-4 Inhibitor I 0.008 | [6] 0.35 | ralimetinib 0.041 | [7] 0 | [8] -0.077 | [9] 0.138 | [10] 0.017 | [11] -0.151 | [12] -0.026 | [13] -0.094

DBF4 (UniProt Q9UBU7)
inactive: erlotinib 0.03 | [1] 0.056 | [2] 0.005 | [3] -0.033 | [4] 0.098 | [5] -0.058 | [15] -0.068 | [16] -0.022 | IRAK-1-4 Inhibitor I 0.04 | ibrutinib -0.06 | ralimetinib -0.048 | [7] -0.017 | [8] -0.01 | [9] -0.062 | [10] -0.058 | [11] -0.012 | [12] -0.042
active: [14] -0.342

DDX28 (UniProt Q9NUL7)
inactive: erlotinib -0.022 | [2] 0.019 | [14] -0.072 | [4] -0.074 | IRAK-1-4 Inhibitor I -0.07 | ibrutinib 0.073 | ralimetinib -0.025 | [7] -0.026 | [8] 0.058 | [9] 0.036 | [10] -0.015 | [11] -0.042 | [12] -0.058

DARS (UniProt P14868)
inactive: erlotinib 0.006 | [1] 0.037 | [2] -0.039 | [3] 0.027 | [14] 0.019 | [4] -0.004 | [5] -0.04 | [15] -0.012 | [16] -0.024 | IRAK-1-4 Inhibitor I -0.041 | ibrutinib 0.009 | [6] 0.021 | ralimetinib 0.049 | [7] 0.04 | [8] 0.001 | [9] -0.003 | [10] 0.027 | [11] -0.019 | [12] 0.026 | [13] 0.053

DCP1B (UniProt Q8IZD4)
inactive: erlotinib 0.095 | [1] 0.039 | [2] -0.092 | [3] -0.025 | [14] -0.341 | [5] 0.146 | [15] 0.054 | [16] 0.107 | ibrutinib -0.284 | [8] 0.272 | [10] -0.084 | [11] -0.027

DCAF12 (UniProt Q5T6F0)
inactive: erlotinib -0.059 | [1] 0.03 | [2] 0.011 | [3] -0.045 | [14] -0.076 | [4] -0.038 | [5] -0.03 | [15] -0.134 | [16] 0.241 | IRAK-1-4 Inhibitor I 0.126 | ibrutinib 0.068 | ralimetinib 0.035 | [7] -0.054 | [8] -0.022 | [9] 0.03 | [10] 0.075 | [11] 0.013 | [12] -0.061

DBNL (UniProt Q9UJU6)
inactive: erlotinib 0.056 | [2] 0.075 | [14] 0.022 | ibrutinib 0.027 | [6] 0.081 | [8] -0.136 | [9] 0.061 | [10] -0.043 | [13] -0.073

DENND1B (UniProt Q6P3S1)
inactive: erlotinib -0.08 | [1] 0.153 | [2] -0.13 | [3] 0.04 | [14] 0.19 | [4] 0.019 | [5] 0.007 | IRAK-1-4 Inhibitor I 0.014 | ibrutinib 0.405 | [6] -0.034 | ralimetinib -0.039 | [7] -0.114 | [8] -0.087 | [9] 0.151 | [10] 0.174 | [11] 0.031 | [12] -0.003 | [13] 0.011

DAAM1 (UniProt Q9Y4D1)
inactive: erlotinib -0.071 | [1] 0.092 | [2] 0.175 | [3] -0.145 | [14] -0.065 | [5] -0.119 | ibrutinib -0.013 | [6] -0.051 | [8] -0.145 | [10] 0.118 | [11] -0.1 | [13] 0.19

DDAH1 (UniProt O94760)
active: [10] -0.441
inactive: erlotinib 0 | [1] -0.008 | [2] 0.006 | [3] -0.027 | [4] -0.006 | [5] 0.035 | [15] 0.032 | [16] 0.051 | IRAK-1-4 Inhibitor I -0.016 | [6] -0.016 | ralimetinib -0.037 | [7] -0.045 | [8] -0.001 | [11] 0.137 | [12] -0.005 | [13] -0.04

DAZAP2 (UniProt Q15038)
inactive: erlotinib 0.028 | [2] 0.126 | [8] 0.007

DESI1 (UniProt Q6ICB0)
inactive: [1] 0.256 | [3] 0.033 | [14] 0.022 | [5] 0.038 | [15] 0.098 | [16] 0.091 | ibrutinib 0.131 | [9] -0.021 | [10] 0.137 | [11] -0.015

DDR1 isoform 5 (UniProt Q08345)
inactive: [14] 0.044 | [4] 0.04 | [15] -0.011 | [16] -0.016 | IRAK-1-4 Inhibitor I 0.097 | ibrutinib 0 | ralimetinib 0.205 | [7] 0.021 | [9] -0.117 | [10] -0.099 | [11] 0.38 | [12] 0.117
